# Some of the results follow. The data scatter; read single values as rough.
# Amino acid sequences for entries named in this document (tags omitted). A change or cut given only in a name is not applied to a line headed by its entry. Residues count along the entry.
# UniProt Q9Y2Z0: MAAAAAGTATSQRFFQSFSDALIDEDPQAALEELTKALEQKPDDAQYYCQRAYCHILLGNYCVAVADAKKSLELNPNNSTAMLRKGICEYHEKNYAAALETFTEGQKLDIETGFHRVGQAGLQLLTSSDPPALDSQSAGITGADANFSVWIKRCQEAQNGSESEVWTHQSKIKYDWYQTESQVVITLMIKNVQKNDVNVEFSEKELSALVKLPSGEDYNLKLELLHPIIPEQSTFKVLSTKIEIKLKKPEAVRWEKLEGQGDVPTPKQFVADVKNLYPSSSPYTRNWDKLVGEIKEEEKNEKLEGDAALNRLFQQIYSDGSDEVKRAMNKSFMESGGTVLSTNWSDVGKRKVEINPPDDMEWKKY
# UniProt Q5M775: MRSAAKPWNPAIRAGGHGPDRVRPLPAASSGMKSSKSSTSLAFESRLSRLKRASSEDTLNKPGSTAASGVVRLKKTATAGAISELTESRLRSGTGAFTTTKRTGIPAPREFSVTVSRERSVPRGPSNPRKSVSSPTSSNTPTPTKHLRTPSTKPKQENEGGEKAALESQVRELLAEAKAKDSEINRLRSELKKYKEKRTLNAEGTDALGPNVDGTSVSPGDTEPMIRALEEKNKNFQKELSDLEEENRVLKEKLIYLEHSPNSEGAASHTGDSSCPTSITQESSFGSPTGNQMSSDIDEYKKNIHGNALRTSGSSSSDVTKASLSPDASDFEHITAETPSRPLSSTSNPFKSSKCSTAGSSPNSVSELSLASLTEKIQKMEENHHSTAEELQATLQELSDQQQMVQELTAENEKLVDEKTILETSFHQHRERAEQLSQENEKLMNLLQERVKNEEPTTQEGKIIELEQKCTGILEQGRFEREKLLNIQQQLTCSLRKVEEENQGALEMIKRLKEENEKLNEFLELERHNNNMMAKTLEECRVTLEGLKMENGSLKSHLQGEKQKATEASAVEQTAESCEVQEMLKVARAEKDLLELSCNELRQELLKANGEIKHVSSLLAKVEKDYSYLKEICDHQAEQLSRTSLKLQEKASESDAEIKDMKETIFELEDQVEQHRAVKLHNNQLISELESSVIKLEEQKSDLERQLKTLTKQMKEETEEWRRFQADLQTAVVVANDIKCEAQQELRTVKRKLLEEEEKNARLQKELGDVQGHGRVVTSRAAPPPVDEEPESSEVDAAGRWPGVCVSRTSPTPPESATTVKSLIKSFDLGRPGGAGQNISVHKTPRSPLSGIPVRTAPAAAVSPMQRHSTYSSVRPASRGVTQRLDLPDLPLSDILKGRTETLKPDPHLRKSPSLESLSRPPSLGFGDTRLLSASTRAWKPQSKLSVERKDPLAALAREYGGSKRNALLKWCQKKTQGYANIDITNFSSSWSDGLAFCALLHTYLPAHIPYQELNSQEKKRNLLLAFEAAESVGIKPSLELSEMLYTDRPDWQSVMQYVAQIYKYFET
# UniProt Q15022: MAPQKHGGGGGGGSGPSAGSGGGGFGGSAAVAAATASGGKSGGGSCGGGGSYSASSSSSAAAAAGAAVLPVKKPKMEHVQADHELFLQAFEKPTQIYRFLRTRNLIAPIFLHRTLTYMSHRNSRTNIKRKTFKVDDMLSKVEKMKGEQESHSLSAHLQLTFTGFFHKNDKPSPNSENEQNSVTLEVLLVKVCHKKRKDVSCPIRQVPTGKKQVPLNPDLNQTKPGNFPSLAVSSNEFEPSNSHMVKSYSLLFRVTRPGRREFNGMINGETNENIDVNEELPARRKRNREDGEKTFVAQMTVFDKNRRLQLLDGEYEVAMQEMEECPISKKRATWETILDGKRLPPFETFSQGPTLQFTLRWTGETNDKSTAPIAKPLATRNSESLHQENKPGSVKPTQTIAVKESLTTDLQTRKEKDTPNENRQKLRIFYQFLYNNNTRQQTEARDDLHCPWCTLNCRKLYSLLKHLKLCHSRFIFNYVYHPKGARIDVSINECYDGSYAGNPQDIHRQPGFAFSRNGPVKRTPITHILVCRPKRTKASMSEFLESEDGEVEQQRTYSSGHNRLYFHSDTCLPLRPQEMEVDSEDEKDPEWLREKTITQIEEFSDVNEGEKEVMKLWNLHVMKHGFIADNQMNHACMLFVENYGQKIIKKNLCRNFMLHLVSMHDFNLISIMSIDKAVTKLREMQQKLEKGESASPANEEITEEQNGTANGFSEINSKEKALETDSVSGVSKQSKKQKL
# UniProt Q76I76: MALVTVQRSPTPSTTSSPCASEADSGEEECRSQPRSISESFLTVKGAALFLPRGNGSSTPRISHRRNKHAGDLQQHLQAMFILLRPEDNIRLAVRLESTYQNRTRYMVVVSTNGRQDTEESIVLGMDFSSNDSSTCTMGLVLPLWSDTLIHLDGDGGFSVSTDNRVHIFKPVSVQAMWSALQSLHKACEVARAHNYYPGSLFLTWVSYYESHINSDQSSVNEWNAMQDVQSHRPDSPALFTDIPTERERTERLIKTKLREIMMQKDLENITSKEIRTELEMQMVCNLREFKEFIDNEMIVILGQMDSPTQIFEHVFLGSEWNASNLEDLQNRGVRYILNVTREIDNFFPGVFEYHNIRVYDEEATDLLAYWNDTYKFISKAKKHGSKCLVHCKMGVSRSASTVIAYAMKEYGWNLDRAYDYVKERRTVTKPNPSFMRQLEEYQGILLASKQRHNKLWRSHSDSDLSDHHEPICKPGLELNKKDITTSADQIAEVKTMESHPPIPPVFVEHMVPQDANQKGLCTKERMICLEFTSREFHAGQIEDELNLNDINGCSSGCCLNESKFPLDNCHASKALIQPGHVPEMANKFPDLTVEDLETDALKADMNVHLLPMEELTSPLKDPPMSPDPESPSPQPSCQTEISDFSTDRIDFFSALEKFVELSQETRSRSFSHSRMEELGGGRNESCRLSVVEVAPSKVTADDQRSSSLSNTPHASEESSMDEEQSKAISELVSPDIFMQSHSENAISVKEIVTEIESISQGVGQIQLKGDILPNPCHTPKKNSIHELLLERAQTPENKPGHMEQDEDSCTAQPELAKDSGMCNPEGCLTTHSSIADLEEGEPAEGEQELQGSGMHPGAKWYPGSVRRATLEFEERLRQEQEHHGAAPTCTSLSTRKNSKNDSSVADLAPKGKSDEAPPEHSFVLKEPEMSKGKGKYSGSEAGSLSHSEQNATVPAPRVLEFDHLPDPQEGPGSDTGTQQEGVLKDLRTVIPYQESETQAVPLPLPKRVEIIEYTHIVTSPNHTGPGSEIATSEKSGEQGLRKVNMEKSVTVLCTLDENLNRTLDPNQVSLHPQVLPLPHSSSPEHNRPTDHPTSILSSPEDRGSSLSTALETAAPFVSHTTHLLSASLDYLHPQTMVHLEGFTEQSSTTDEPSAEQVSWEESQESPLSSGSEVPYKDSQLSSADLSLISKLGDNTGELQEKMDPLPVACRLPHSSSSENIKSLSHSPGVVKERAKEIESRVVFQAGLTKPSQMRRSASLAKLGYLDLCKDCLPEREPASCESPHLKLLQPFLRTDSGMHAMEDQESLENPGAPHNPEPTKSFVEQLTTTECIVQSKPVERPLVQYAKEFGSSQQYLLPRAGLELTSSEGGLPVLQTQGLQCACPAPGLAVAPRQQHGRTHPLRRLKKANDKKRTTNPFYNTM
# UniProt Q96FJ0: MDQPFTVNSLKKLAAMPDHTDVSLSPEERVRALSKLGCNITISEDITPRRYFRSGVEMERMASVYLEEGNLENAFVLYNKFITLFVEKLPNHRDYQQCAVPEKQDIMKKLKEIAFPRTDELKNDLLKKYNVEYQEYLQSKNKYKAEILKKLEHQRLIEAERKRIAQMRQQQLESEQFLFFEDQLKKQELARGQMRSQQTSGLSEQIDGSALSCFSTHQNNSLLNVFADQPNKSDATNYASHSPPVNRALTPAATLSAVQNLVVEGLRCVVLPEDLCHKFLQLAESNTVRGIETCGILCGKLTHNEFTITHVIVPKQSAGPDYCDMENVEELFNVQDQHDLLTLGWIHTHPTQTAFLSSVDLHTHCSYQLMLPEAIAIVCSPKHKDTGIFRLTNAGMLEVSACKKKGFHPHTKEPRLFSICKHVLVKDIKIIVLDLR
# UniProt Q9Y6Q2: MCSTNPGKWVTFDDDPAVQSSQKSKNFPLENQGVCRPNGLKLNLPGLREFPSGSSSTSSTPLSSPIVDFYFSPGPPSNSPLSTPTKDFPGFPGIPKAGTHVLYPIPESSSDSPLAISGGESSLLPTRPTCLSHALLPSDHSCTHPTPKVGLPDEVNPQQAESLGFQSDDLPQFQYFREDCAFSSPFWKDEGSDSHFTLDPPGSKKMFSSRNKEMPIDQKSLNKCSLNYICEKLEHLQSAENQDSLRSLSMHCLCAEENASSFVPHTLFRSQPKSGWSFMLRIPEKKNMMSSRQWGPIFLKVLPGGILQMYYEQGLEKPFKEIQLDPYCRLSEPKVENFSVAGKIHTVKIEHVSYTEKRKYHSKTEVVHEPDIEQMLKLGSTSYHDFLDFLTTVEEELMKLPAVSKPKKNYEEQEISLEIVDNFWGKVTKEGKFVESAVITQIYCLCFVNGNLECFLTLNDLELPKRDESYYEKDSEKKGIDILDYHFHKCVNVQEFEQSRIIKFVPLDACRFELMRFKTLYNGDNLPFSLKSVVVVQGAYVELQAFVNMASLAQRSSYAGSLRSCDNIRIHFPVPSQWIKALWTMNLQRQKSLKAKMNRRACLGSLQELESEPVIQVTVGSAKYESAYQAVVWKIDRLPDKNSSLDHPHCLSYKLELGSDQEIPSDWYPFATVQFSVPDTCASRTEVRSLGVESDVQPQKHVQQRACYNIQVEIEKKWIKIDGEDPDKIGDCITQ
# UniProt Q8NB90, 10-31: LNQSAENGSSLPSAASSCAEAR
# UniProt Q8WXA9, 483-504: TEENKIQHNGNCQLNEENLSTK
# UniProt Q9P2R7: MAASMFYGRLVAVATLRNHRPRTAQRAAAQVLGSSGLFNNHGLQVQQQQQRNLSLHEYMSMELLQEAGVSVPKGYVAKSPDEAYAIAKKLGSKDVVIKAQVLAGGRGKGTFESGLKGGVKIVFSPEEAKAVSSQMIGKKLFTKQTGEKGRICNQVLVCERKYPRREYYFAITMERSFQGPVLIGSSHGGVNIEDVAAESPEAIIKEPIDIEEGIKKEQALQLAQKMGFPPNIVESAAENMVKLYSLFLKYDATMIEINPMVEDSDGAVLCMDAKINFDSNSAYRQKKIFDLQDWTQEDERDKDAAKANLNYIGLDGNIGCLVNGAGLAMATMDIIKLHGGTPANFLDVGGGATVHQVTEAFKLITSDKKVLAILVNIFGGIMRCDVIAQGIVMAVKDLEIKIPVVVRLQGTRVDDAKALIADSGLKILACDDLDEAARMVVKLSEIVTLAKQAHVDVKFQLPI
# UniProt Q9NZD8: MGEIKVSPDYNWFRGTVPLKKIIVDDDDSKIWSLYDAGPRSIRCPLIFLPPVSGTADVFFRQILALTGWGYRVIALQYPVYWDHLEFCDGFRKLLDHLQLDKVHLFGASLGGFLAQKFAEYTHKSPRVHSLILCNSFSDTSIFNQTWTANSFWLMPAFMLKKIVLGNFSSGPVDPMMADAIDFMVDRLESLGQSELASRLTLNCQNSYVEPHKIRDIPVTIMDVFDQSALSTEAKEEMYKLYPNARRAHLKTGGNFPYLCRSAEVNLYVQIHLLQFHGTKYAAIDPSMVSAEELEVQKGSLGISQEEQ
# UniProt Q13188: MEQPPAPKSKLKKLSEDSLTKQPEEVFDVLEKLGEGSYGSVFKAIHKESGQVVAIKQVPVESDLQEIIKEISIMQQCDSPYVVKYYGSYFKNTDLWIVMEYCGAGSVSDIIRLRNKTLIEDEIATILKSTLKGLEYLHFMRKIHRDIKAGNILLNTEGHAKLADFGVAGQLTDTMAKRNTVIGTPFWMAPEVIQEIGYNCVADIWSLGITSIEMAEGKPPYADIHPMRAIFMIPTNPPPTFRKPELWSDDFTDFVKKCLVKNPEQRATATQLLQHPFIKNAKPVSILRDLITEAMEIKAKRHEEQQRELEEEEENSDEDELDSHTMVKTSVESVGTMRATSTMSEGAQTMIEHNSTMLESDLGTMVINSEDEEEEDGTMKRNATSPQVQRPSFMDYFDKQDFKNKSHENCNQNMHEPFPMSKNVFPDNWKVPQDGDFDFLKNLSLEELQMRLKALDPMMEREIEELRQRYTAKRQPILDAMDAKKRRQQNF
# UniProt Q9BUA3, 49-68: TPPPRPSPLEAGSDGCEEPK
# UniProt O14662: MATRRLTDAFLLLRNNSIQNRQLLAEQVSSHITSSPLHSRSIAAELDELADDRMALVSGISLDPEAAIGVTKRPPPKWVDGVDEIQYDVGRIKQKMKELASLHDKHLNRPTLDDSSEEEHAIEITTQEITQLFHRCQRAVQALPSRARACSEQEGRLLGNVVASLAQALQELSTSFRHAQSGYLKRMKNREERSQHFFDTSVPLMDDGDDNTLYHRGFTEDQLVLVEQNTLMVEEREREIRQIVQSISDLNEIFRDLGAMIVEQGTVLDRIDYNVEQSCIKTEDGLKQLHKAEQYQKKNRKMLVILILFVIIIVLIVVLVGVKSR
# Columns and labels:
# [1] = compound: ClCC(=O)N[C@@H]1CCCc2ccccc12; experiment: log2 mean competition ratio of IA-DTB cysteine labelling (DMSO/compound) (log2 ratio); higher = stronger cysteine engagement by compound; details: treatment time: 4 h, cell line lysate: HEK293T
# Protocol: (§1)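 IA-DTB competitive cysteine chemoproteomics in HEK293T RIPA lysate. Lysates were treated with compound 29 or 30 at 50 or 200 µM for 4 h, then IA-DTB (500 µM, 1 h), trypsin-digested, NeutrAvidin-enriched and analysed by diaPASEF. Competition ratio = intensity DMSO / intensity compound (n=4 treated, n=64 DMSO); binding: mean log2 CR ≥ 1 and p ≤ 0.05 plus QC filters. Target is the cysteine site.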
# [2] = compound: ClCC(=O)N[C@H]1CCCc2ccccc12; experiment: as above; details: treatment time: 4 h, cell line lysate: HEK293T
# Protocol: as §1
Target,log2 mean competition ratio ([1]; 50 µM),log2 mean competition ratio ([1]; 200 µM),log2 mean competition ratio ([2]; 50 µM),log2 mean competition ratio ([2]; 200 µM)
SUGT1 C49 (UniProt Q9Y2Z0),-0.062,-0.129,-0.227,-0.214
SYNE2 C2520 (UniProt Q8WXH0),0.181,0.232,0.918,0.00592
STUB1 C180 (UniProt Q9UNE7),0.0445,0.0379,-0.0306,0.32
SPECC1 C740 (UniProt Q5M775),-0.0918,-0.27,-0.164,-0.121
SRCIN1 C614 (UniProt Q9C0H9),-0.0909,0.273,0.0307,-0.0605
SUZ12 C201 (UniProt Q15022),-0.0565,0.0257,0.291,0.146
SRRT C490 (UniProt Q9BXP5),0.0215,0.138,0.156,0.112
SYNE2 C1032 (UniProt Q8WXH0),0.0978,-0.115,0.0627,-0.0875
SPATA33 C101 (UniProt Q96N06),-0.213,-0.129,0.348,-0.18
SSH2 C1210 (UniProt Q76I76),-0.0658,-0.0375,0.104,0.0719
SPATA5L1 C509 (UniProt Q9BVQ7),0.179,0.0463,0.501,0.0692
STAMBPL1 C98 (UniProt Q96FJ0),-0.208,-0.076,-0.0708,0.00406
STAM2 C85 (UniProt O75886),0.16,0.145,0.00395,-0.0708
SPTBN2 C2226 (UniProt O15020),-0.422,-0.084,-0.457,0.551
SUGT1 C88 (UniProt Q9Y2Z0),0.255,0.0918,0.921,-0.217
STON1 C328 (UniProt Q9Y6Q2),-0.0145,-0.143,-0.00426,-0.0405
SYNE2 C4911 (UniProt Q8WXH0),-0.192,-0.0429,-0.0372,-0.104
STAT5B C101 (UniProt P51692),0.313,0.0904,0.701,0.338
SPTAN1 C1622 (UniProt Q13813),-0.0583,-0.0829,-0.196,0.0706
SPATA5 C291 (UniProt Q8NB90),0.357,0.0971,0.625,0.254
SREK1 C494 (UniProt Q8WXA9),-0.416,0.0883,-0.614,0.0042
STRN4 C562 (UniProt Q9NRL3),-0.126,0.146,-0.25,0.251

# Look-ups from the results shown:
# In log2 mean competition ratio ([1]; 200 µM), SPATA5 C291 (UniProt Q8NB90) reads 0.0971
# In log2 mean competition ratio ([1]; 200 µM), SUGT1 C49 (UniProt Q9Y2Z0) reads -0.129
# In log2 mean competition ratio ([1]; 200 µM), SRCIN1 C614 (UniProt Q9C0H9) reads 0.273
# In log2 mean competition ratio ([2]; 200 µM), SPATA33 C101 (UniProt Q96N06) reads -0.18

# Further entries

Target,log2 mean competition ratio ([1]; 50 µM),log2 mean competition ratio ([1]; 200 µM),log2 mean competition ratio ([2]; 50 µM),log2 mean competition ratio ([2]; 200 µM)
SPECC1L C162 (UniProt Q69YQ0),-0.1,0.169,-0.104,0.199
SPATA5 C27 (UniProt Q8NB90),-0.232,0.0423,0.0111,-0.0626
SUPT5H C626 (UniProt O00267),0.645,0.864,0.842,0.532
SUCLA2 C430 (UniProt Q9P2R7),-0.0411,0.137,-0.478,0.127
SREBF2 C832 (UniProt Q12772),-0.227,0.915,-0.373,0.549
SRP72 C128 (UniProt O76094),0.144,0.0149,-0.785,-0.0714
SPG21 C204 (UniProt Q9NZD8),0.16,-0.321,-0.0622,-0.525
SVIL C671 (UniProt O95425),0.0675,0.144,-0.22,-0.0706
STK3 C77 (UniProt Q13188),-0.0485,-0.277,0.248,-0.36
SRGAP2 C486,0.0537,0.197,0.46,0.282
SRPK1 C188 (UniProt Q96SB4),-0.0866,-0.00179,0.126,-0.0693
SRGAP2C C205,-0.0866,0.138,-0.404,0.0682
SPATA5L1 C580 (UniProt Q9BVQ7),0.0974,0.252,0.0833,0.38
SRRT C412 (UniProt Q9BXP5),0.369,-0.133,0.391,-0.267
SPINT2 C38,0.137,0.793,-0.289,0.389
STXBP1 C552 (UniProt P61764),0.399,-0.0917,-0.0602,-0.0347
SPINDOC C64 (UniProt Q9BUA3),-0.124,0.215,-1.05,0.09
STK11IP C918 (UniProt Q8N1F8),0.181,0.0178,-0.257,-0.0671
STK38 C9 (UniProt Q15208),-0.203,0.374,0.0102,-0.0721
STX16 C150 (UniProt O14662),-0.118,0.207,-0.144,0.185
STK10 C947 (UniProt O94804),-0.0448,-0.044,-0.171,-0.177

# — the supplement of paper PMC11732987, “Enantioselective OTUD7B fragment discovery through chemoproteomics screening and high-throughput optimisation” (Communications Chemistry, 2025)
